This experiment has as its target T1, full-length human myelin protein zero (P0) (human), P25189.
T1 chain: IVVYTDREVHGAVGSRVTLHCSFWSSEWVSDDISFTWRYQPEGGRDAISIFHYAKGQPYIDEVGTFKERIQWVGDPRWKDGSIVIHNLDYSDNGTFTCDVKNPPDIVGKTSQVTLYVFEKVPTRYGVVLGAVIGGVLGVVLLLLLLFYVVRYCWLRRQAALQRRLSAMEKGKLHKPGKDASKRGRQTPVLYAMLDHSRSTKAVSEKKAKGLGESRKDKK
The experiment can be described thus: SEC-SAXS. Conditions: remark: other sources report otherwise. A general note: SEC sorts molecules by how far they enter the pores of the column.

Results are given in words; binding and its absence hold for the method and conditions named.

B1: full-length human myelin protein zero (P0), P25189 30-248 (protein)
chain: T1 chain
On to B1, for which the binding result was “no binding (tested: 0.94 mg/ml)”.
